Measurements as given in publication PMC7925690, “A molecular switch in sulfur metabolism to reduce arsenic and enrich selenium in rice grain” (Nature Communications, 2021).
These are yes or no findings as the source states them, for the method shown. Binding seen in cells or lysates may run through a third protein. Some binding calls cover weakened binding; strength is not graded here. Tags and fused reporters may be left off the sequences shown.

Amino acid sequences for entries named in this document (tags omitted). A change or cut given only in a name is not applied to a line headed by its entry.
UniProt P47998: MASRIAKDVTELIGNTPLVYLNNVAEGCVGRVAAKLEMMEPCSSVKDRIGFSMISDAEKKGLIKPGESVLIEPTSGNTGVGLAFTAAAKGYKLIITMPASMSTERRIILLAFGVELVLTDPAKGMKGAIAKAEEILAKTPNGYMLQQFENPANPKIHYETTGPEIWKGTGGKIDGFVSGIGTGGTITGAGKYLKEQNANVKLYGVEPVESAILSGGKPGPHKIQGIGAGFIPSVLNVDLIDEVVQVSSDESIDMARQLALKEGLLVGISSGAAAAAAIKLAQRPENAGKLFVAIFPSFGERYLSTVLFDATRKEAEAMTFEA

What was measured:
[1] = molecular target: T1, His-AtSAT5 (Arabidopsis thaliana) (UniProt Q42538); assay: pull-down; His-AtSAT5 held on a NiCl2 HiTrap Chelating column, washed with Buffer W (50 mM Tris-HCl pH 8.0, 250 mM NaCl, 80 mM imidazol) and with 10 mM OAS; crude extract of untagged OAS-TL loaded; elution with Buffer W + 10 mM OAS, then 400 mM imidazol; SDS-PAGE, Coomassie; only the target …
T1 sequence: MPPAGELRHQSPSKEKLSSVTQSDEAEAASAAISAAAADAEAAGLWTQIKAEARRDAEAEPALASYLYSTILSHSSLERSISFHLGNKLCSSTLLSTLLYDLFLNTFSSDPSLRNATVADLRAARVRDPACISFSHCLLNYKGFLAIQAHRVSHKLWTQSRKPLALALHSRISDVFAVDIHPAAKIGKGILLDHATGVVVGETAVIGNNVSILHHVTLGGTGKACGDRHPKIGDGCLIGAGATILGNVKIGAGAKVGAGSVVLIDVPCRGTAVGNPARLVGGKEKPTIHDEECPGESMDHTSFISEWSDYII

[2] = molecular target: T1, His-AtSAT5 (Arabidopsis thaliana); assay: as above; remark: listed apart in the source
[3] = molecular target: T1, His-AtSAT5 (Arabidopsis thaliana); assay: pull-down; His-AtSAT5 held on Ni-NTA packed columns, S-tagged OAS-TL loaded; washing buffer 50 mM Tris-HCl pH 8.0, 250 mM NaCl, 20 mM imidazol; OAS elution (10 mM) and final elution; immunoblot with anti-S-tag and anti-His; only the target purified

Row | binding [1] | binding [2] | binding [3] | Substance
1 | binds | – | – | AtOAS-TL A^S102N (untagged) (from UniProt P47998 1-322) (enzyme)
2 | binds | no binding (condition: with 10 mM OAS) | – | AtOAS-TL A (untagged) (from UniProt P47998 1-322) (enzyme)
3 | – | – | binds | S-tag-AtOAS-TL A^S102N (from UniProt P47998 1-322) (enzyme)
